Test results published in article PMC5131268.
Results are given in words; binding and its absence hold for the method and conditions named. In cells and extracts the contact can be indirect. Binding can be weak; no strength is given.

Target: Glutathione-S-transferases mu 2 (GSTM2) (pig)
Experiment: co-IP; ST cells transfected with GFP-pcDNA3.1-GSTM2 for 24 h; lysate supernatant incubated with 2 ug anti-GSTM2 (IgG as control) at 4 °C for 5 h, Protein A/G beads, washed 5 times with PBS containing 0.05% Tween 20; western blotting

B1: STAT1 (protein, UniProt Q764M5 1-753)
chain: MSQWYELQQLDSKFLEQVHQLYDDSFPMEIRQYLAQWLENQDWEHAANDVSFATIRFHDLLSQLDDQYSRFSLENNFLLQHNIRKSKRNLQDNFQEDPIQMSMIICNCLKEERKILENAQRFNQTQSGNIQSTVMLDKHKELDSKVRNVKDKVMCIEHEIKTLEDLQDEYDFKCKTLQNREHDTNGVAKNDQKQEQMLLQKMYLMLDNKRKEVVHKIIELLNVTELTQKALINDELVEWKRRQQSACIGGPPNACLDQLQNWFTIVAESLQQVRQQLKKLEELEQKYTYEHDPITKNKQALWDRTFSLFQQLIQSSFVVERQPCMPTHPQRPLVLKTGVQFTVKLRLLVKLQELNYNLKVKVLFDKDVSERNTVKGFRKFNILGTHTKVMNMEESTNGSLAAEFRHLQLKEQKNAGARTNEGPLIVTEELHSLSFETQLCQPGLVIDLETTSLPVVVISNVSQLPSGWASILWYNMLVAEPRNLSFFLNPPCARWSQLSEVLSWQFSSVTKRGLNVDQLNMLGEKLLGPTAGPDGLIPWTRFCKENINDKNFPFWLWIESILELIKKHLLSLWNDGCIVGFISKERERALLKDQQPGTFLLRFSESCREGAITFTWVERSQNGGEPYFHAVEPYTKKELSAVTFPDIIRNYKVMAAENIPENPLKYLYPNIDKDHAFGKYYSRPKEAPEPMELDGPKGTGYIKTELISVSEVHPSRLQTTDNLLPMSPEEFDEVSRMVGPVEFDMVSMTRGRS
- binding: binds
